No constants are given. Whether binding was seen depends on the method and setting. In cells and extracts the contact can be indirect. Some binding calls cover weakened binding; strength is not graded here.
Molecular target: histidine triad nucleotide-binding protein 3 (HINT3) (human (endogenous in HPAECs)) (UniProt Q9NQE9)
Assay: co-IP; HPAEC lysates (1 mg) incubated with anti-HINT3 antibody (or control IgG) overnight at 4 °C, protein A/G agarose 2 h at 4 °C, washed three times with cold PBS-T (PBS + 1% Triton), immunoblotted

Sequences of proteins named here, by UniProt entry; tags and fusion partners are left off.
UniProt Q9NQE9: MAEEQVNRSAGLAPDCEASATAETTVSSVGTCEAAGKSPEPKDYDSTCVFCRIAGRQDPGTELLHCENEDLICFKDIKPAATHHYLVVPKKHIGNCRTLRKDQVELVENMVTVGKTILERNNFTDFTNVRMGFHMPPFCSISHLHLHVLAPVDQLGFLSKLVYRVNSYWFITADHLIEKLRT
UniProt P10415: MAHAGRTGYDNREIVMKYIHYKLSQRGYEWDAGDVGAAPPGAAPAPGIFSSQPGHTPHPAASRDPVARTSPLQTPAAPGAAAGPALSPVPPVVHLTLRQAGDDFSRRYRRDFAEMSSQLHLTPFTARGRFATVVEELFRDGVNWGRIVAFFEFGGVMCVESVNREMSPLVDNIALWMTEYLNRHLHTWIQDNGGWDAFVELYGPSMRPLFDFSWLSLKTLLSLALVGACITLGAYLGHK
UniProt P51784: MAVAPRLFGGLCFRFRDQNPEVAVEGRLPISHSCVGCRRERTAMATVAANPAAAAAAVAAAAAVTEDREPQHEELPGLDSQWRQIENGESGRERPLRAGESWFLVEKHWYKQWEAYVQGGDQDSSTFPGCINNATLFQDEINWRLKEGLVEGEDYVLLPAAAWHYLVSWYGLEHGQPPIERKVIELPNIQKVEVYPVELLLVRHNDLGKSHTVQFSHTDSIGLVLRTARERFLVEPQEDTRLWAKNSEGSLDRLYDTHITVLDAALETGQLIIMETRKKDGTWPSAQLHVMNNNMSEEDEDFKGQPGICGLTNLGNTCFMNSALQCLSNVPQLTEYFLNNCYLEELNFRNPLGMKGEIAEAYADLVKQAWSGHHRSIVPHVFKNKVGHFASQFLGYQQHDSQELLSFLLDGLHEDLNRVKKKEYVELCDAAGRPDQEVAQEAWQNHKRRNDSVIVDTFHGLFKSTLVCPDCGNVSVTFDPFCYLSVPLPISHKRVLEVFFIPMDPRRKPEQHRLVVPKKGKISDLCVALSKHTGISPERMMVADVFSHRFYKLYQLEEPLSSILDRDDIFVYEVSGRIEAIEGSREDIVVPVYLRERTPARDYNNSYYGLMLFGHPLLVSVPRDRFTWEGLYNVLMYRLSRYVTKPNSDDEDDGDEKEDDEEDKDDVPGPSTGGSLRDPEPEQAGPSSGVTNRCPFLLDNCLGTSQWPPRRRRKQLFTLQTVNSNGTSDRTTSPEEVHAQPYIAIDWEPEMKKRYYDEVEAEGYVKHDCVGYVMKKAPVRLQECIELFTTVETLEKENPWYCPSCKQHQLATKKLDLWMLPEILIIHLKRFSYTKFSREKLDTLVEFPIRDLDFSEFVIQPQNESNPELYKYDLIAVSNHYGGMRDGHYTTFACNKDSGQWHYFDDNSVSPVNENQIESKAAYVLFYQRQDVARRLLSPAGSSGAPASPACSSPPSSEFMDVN

Substance | binding
B-cell lymphoma 2 (BCL2) (from UniProt P10415 1-239) | binds
ubiquitin-specific protease 11 (USP11) (from UniProt P51784 1-963) (enzyme) | binds
